The whole screen tested about 320,000 compounds, of which about 22,000 (6.9%) were called active. Inconclusive results, whose numbers are uncertain, are shown with a selection of clear calls. Calls come from the whole dose curve; as a rule, active = well fitted inhibition curve with a large enough effect; inconclusive = small, poorly fitted or top-dose-only effect, or another doubt; inactive = no such curve, though single readings can be large or run the other way. Potencies of inconclusive entries are doubtful fits and often do not repeat.
assay: Primary qHTS for delayed death inhibitors of the malarial parasite plastid, 96 hour incubation; conditions: P. falciparum luciferase reporter growth; series mostly up to 28.7 µM
Method in brief: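 Two parasite generations (96 h, 37 C, 5% CO2) of compound exposure in infected erythrocytes (0.05% parasitemia, 2% hematocrit). Luciferase-reporter P. falciparum; decreased luminescence indicates inhibited growth, aimed at apicoplast-acting delayed death.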
Potency is the fitted concentration of half-maximal effect.

SMILES | Potency
CCOC(=O)Cn1cnc2c(nnn2-c2ccc(F)cc2)c1=O | inactive
Cc1ccc(C2(C)NC(=O)N(Cc3c(C)noc3C)C2=O)cc1 (stereo unspecified) | inconclusive: 11.7 µM [inhibitor, partial curve, poor fit]
COc1cccc2c1CCc1c-2nc2ccccc2c1C(=O)O | inconclusive: 1.31 µM [inhibitor, partial curve, poor fit]
COc1ccc(CNC(=O)/C(C#N)=C2\N=C(NC(=O)c3cccs3)c3ccccc32)cc1 | inconclusive: 1.65 µM [inhibitor, partial curve, poor fit]
Cc1cc(C)n(-c2ccc(C(=O)OCC(=O)c3ccc(Br)s3)cc2)n1 | inconclusive: 3.29 µM [inhibitor, full curve]
CCc1ccc(NC(=O)c2onc(C)c2Cl)cc1 | inactive
CC(C)[C@H](NC(=O)c1c(F)cccc1F)C(=O)OCC(=O)NC(=O)NC1CCCC1 | inactive
CC(C)(C)c1ccc(OC(=O)c2ccc3nsnc3c2)cc1 | inconclusive: 7.38 µM [inhibitor, partial curve]
CCN1CCN(C(c2ccccc2)c2nnnn2Cc2ccccc2)CC1 (stereo unspecified) | inactive
CCOc1ccc2nc(NC(=O)CSc3nnnn3C3CCCCC3)sc2c1 | active: 4.15 µM
CCOC(=O)CSc1nnc([C@H](Cc2ccccc2)NC(=O)OC(C)(C)C)o1 | inconclusive: 0.0828 µM [inhibitor, full curve, poor fit]
CCOc1ccc2nc(NC(=O)c3ccc(OCC4CCCO4)cc3)sc2c1 (stereo unspecified) | inconclusive: 4.15 µM [inhibitor, single point]
O=C(OC1CCCCC1)c1ccc(NC(=O)c2ccco2)cc1 | active: 2.94 µM
COCCCn1c(=O)/c(=C\c2ccccc2OC(C)C)s/c1=C(/C#N)C(=O)Nc1ccc(C(=O)O)cc1 | active: 1.47 µM
CC1CCC(NC(=O)c2cc(S(=O)(=O)N(C)C)ccc2N2CCCC2)CC1 (stereo unspecified) | inconclusive: 11.7 µM [inhibitor, single point]
Brc1cccc(OCCSc2ncccn2)c1 | inactive
CC(=O)Nc1ccc(-c2csc(NCCc3ccccc3)n2)cc1 | inactive
C#CCCc1cocc1/C=[N+](\[O-])c1ccc(C(=O)OCC)cc1 | inconclusive: 11.7 µM [inhibitor, single point]
COc1ccc(CNC(=O)C(CC(C)C)NC(=O)c2ccccc2C)cc1 (stereo unspecified) | inactive
Cc1ccsc1C(=O)NNC(=O)c1cccc(S(=O)(=O)N2CCCC2)c1 | inactive
O=C(CN1C(=O)CC(c2ccco2)Sc2ccccc21)NC1CCCCC1 (stereo unspecified) | inconclusive: 1.04 µM [inhibitor, partial curve, poor fit]
COc1ccc(C2C(C(=O)NCCN3CCOCC3)c3ccccc3C(=O)N2C)cc1OC (stereo unspecified) | inconclusive: 18.5 µM [inhibitor, single point]
O=C(Nc1nnc(C2CC2)s1)c1cc(S(=O)(=O)N2CCN(c3ccccc3)CC2)ccc1Cl | inconclusive: 8.28 µM [inhibitor, partial curve]

SMILES | Potency
O=C(Cc1ccc(Br)cc1)Nc1cccc(-c2cn3c(n2)SCC3)c1 | inconclusive: 13.1 µM [inhibitor, partial curve, poor fit]
CC(C)[C@H](NS(=O)(=O)c1ccc2c(c1)OCCO2)C(=O)OCC(=O)Nc1ccccc1 | inactive
CC1CCc2c(sc3[nH]c(=S)n(C)c(=O)c23)C1 (stereo unspecified) | inactive
CCOc1ccc(N2CC(C(=O)Nc3cccnc3)CC2=O)cc1 (stereo unspecified) | active: 11.7 µM
Oc1c(Cl)cc(Cl)cc1C=Nc1ccccc1N1CCCC1 | inconclusive: 10.4 µM [inhibitor, single point]
CCOC(=O)c1sc(=S)n(-c2ccc(F)c(F)c2)c1N | inconclusive: 13.1 µM [inhibitor, single point]
CCC(CO)Oc1cc(NC(=O)c2cccc(Cl)c2)c2ncn(C(C)C)c2c1 (stereo unspecified) | inconclusive: 9.28 µM [inhibitor, single point]
COc1ccc(NC(=O)Cc2ccccc2F)cn1 | inconclusive: 18.5 µM [inhibitor, single point]
CCOc1cc(C(=O)CSc2nnc(CNc3ccc(Cl)cc3)o2)ccc1NC(=O)CC | inconclusive: 4.15 µM [inhibitor, single point]
COCCSc1nc2c(c(=O)[nH]c(=O)n2C)n1Cc1cccc(C)c1 | inconclusive: 0.0928 µM [inhibitor, full curve, poor fit]
N/C(CCS(=O)(=O)c1ccc(Cl)cc1)=N\OC(=O)c1ccc(Cl)cc1 | inconclusive: 7.38 µM [inhibitor, partial curve]
FC(F)(F)c1nc(=S)c2ccccc2[nH]1 | inconclusive: 11.7 µM [inhibitor, partial curve]
CCOC(=O)C1(CCSC)NC(c2ccco2)C2C(=O)N(C)C(=O)C21 (stereo unspecified) | inconclusive: 7.38 µM [inhibitor, partial curve]
Cc1cc(Cl)c(OCCOCCN2CCCC(C)C2)c(Br)c1 (stereo unspecified) | inactive
COc1ccccc1C1CCN(C(=O)c2cccc([N+](=O)[O-])c2)CC1 | inactive
CCOC(=O)c1csc(N/N=C2\CCCc3ccccc32)n1 | inconclusive: 13.1 µM [inhibitor, partial curve, poor fit]
COc1ccc2c(-c3ccccc3)cc(SCC(=O)N(C)C)nc2c1 | inconclusive: 18.5 µM [inhibitor, single point]
COc1ccc(N2CCN(C(=N)/C(C(C)=O)=C(\C)O)CC2)cc1 | inactive
Cn1c(CNC(=O)c2ccccc2F)nnc1SCCOc1ccccc1 | inconclusive: 11.7 µM [inhibitor, single point]
Cc1cc2c(cc(C(=O)NCc3cccnc3)n2Cc2ccc(Cl)cc2)o1 | active: 10.4 µM
C/C(=N\NC(=O)c1nnn(-c2nonc2N)c1-c1ccc2c(c1)OCO2)c1ccc(C)cc1 | active: 13.1 µM
COc1ccc(-c2cc(C(=O)NCC(C)C)no2)cc1 | inactive
Cc1ccccc1-c1cc(C(=O)Nc2nc3c(s2)CCCC3)c2ccccc2n1 | inconclusive: 10.4 µM [inhibitor, single point]

Compounds from the list above that contain an aryl methoxy group, in the order listed:
SMILES | Potency
COc1cccc2c1CCc1c-2nc2ccccc2c1C(=O)O | inconclusive: 1.31 µM [inhibitor, partial curve, poor fit]
COc1ccc(CNC(=O)/C(C#N)=C2\N=C(NC(=O)c3cccs3)c3ccccc32)cc1 | inconclusive: 1.65 µM [inhibitor, partial curve, poor fit]
COc1ccc(CNC(=O)C(CC(C)C)NC(=O)c2ccccc2C)cc1 (stereo unspecified) | inactive
COc1ccc(C2C(C(=O)NCCN3CCOCC3)c3ccccc3C(=O)N2C)cc1OC (stereo unspecified) | inconclusive: 18.5 µM [inhibitor, single point]
COc1ccc(NC(=O)Cc2ccccc2F)cn1 | inconclusive: 18.5 µM [inhibitor, single point]
COc1ccccc1C1CCN(C(=O)c2cccc([N+](=O)[O-])c2)CC1 | inactive
COc1ccc2c(-c3ccccc3)cc(SCC(=O)N(C)C)nc2c1 | inconclusive: 18.5 µM [inhibitor, single point]
COc1ccc(N2CCN(C(=N)/C(C(C)=O)=C(\C)O)CC2)cc1 | inactive
COc1ccc(-c2cc(C(=O)NCC(C)C)no2)cc1 | inactive

— PubChem BioAssay AID504834 (National Center for Advancing Translational Sciences (NCATS), 2011)
